Source: the supplement of paper PMC12889115
The other results are listed elsewhere or left out. These are raw signals, not scaled to a control.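 Primary screen: polymyxin B was added at a level permeabilizing Salmonella outer membranes while sparing inner membranes. DMSO wells, both with and without polymyxin B, established maximum growth. Plate-to-plate variation meant each plate was ranked on its own, and the lowest-OD600 compounds were selected as hits.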

System: Salmonella enterica serovar Typhimurium SL1344
Assay: bacterial growth OD600 after 18 h with compound and polymyxin B; higher = more bacterial growth (less inhibition)
Conditions: 50 µM, Mueller-Hinton broth

| Structure (SMILES) | bacterial growth OD600 (polymyxin B 1 µg/mL) | bacterial growth OD600 (polymyxin B 0.75 µg/mL) |
| --- | --- | --- |
| CN(Cc1ccc(C#CCO)s1)C1CCCN(C2Cc3ccccc3C2)C1 (stereo unspecified) | 1.33 |  |
| COc1ccc(-c2nn(-c3ccccc3C)cc2CN2CCOCC2)cc1F | 0.012 |  |
| COc1ccc(-c2noc(CN(C)Cc3nc4ccc(F)cc4[nH]3)n2)cc1 | 0.857 |  |
| CCc1csc(CNC(=O)c2ccc(N3CC[C@H](O)C3)nc2)n1 |  | 0.806 |
| CC(NC(=O)CCC1(Cc2ccc(-c3ccccc3)cc2)CCC(=O)N1)c1cccs1 (stereo unspecified) |  | 0.01 |
| Cc1ccccc1CC(=O)NC1CC(C)(C)Cc2nc(N3CCOCC3)ncc21 (stereo unspecified) |  | 0.795 |
| CC(C(=O)NCCN1Cc2ccccc2OC(c2ccccc2F)C1)c1n[nH]c(=O)c2ccccc12 (stereo unspecified) |  | 0.599 |
| CO[C@H]1[C@H](NC(=O)c2ccsc2)c2ccccc2C12CCN(Cc1ccc3ncccc3c1)CC2 |  | 0.857 |
| COc1ccccc1OCc1cc(C(=O)NCc2cccc(C)n2)n[nH]1 |  | 0.839 |
| COC(C(=O)Nc1ccnn1C1CCN(C(=O)c2ccco2)CC1)c1ccccc1 (stereo unspecified) | 0.942 |  |
| COc1ccc(CN2C(=O)O[C@@H]3CN(C(=O)Nc4ccccc4)C[C@@H]32)cc1OC |  | 0.921 |
| Cc1cccc(N2CCN(CC3(O)CCCN(CC4CCC4)C3=O)CC2)n1 (stereo unspecified) | 0.869 |  |
| COc1cc(OC)c(OC)cc1CN(C)CC1CCCN(CCc2ccccc2F)C1 (stereo unspecified) |  | 0.785 |
| Cc1csc(CN(C)Cc2c(C(=O)N3C[C@@H](C)O[C@@H](C)C3)nc3sccn23)n1 | 0.856 |  |
| COc1cccc(CN2CCN(C(=O)CCC3(Cc4ccc(F)c(OC)c4)CCC(=O)N3)CC2=O)c1 (stereo unspecified) |  | 0.842 |
| COc1ccc(CNC(=O)CCC2CCCN(Cc3ccc(Cl)s3)C2)c(OC)c1 (stereo unspecified) | 0.927 |  |

| Structure (SMILES) | bacterial growth OD600 (polymyxin B 1 µg/mL) | bacterial growth OD600 (polymyxin B 0.75 µg/mL) |
| --- | --- | --- |
| O=C(c1ccc(N[C@H]2CC[C@H](O)CC2)nc1)N1CCCC(c2ccccc2)CC1 (stereo partly specified) |  | 0.758 |
| CC(=O)c1ccc(OCc2cc(C(=O)NC3CCCCCC3)no2)cc1 |  | 0.521 |
| CC(=O)Nc1cc(C(=O)N2CCCC(c3ccccc3)C2)c2c(c1)nc(C)n2Cc1ccccc1 (stereo unspecified) |  | 0.764 |
| COc1ccc(NC2CCCN(C(=O)c3cnn(Cc4ccccc4)c3)C2)cc1 (stereo unspecified) | 0.842 |  |
| CC(=O)N[C@@H](CC(C)C)C(=O)N1CCc2c(cnc(C)c2CNC(=O)/C=C/c2cccs2)C1 |  | 0.825 |
| CC(=O)N1CCN(c2ccc(-c3nc(-c4cccc(Cl)c4)no3)cn2)CC1 |  | 0.253 |
| COc1ccc(-c2ncc(CN3CCCC(CO)(Cc4ccccc4F)C3)cn2)cc1 (stereo unspecified) | 0.977 |  |
| Cc1cccc(CN2CCCC(O)(CN3CCCOCC3)C2=O)c1 (stereo unspecified) | 0.918 |  |
| CN(CC(O)c1ccccc1)c1nncc(-c2cccc(F)c2)n1 (stereo unspecified) |  | 0.616 |
| CN(CCc1ccccn1)C(=O)c1coc(COc2cccc3cccnc23)n1 |  | 0.775 |
| COc1ccc(CCN2CCCC(CN(C)C(=O)Nc3ccccc3)C2)cc1 (stereo unspecified) | 1.1 |  |
| CCc1nc(C)c(CN2C[C@H]3OC(=O)N(CCCc4ccc(F)cc4)[C@H]3C2)[nH]1 |  | 0.865 |
| CCn1ccnc1CN1CCC(Oc2cc(Cl)ccc2C(=O)N2CCCCC2)CC1 | 1.04 |  |
| CN(C)C(=O)N1CCC(C(=O)NC2CCCN(CCc3ccccc3)C2)CC1 (stereo unspecified) |  | 0.823 |
| CCN1CCC(N2CCC(C(=O)NCc3cccnc3)CC2)CC1 | 1.03 |  |

Reprinted at random: 2 records from the list.

| Structure (SMILES) | bacterial growth OD600 (polymyxin B 1 µg/mL) | bacterial growth OD600 (polymyxin B 0.75 µg/mL) |
| --- | --- | --- |
| COc1ccc(CNC(=O)CCC2CCCN(Cc3ccc(Cl)s3)C2)c(OC)c1 (stereo unspecified) | 0.927 |  |
| Cc1cccc(N2CCN(CC3(O)CCCN(CC4CCC4)C3=O)CC2)n1 (stereo unspecified) | 0.869 |  |
